Taken from: PubChem BioAssay AID1224831 (NIAID, 2016)

- Test: 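Retesting screen hits on the TLR4-driven TNF response with six separate siRNAs each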 (follow-up of hits)
- Cells: human THP-1 B5 monocytic leukaemia cells carrying a TNF promoter luciferase reporter, made macrophage-like with PMA
- Reagents: single siRNA against human genes, 50 nM
- Timing: about 68 h of knock-down, then 4 h LPS
- Challenge: LPS (Salmonella minnesota, TLR-grade) at 10 ng/ml for 4 h; PMA 5 ng/ml present during knock-down
- Read-out: 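TNF promoter reporter read as dual luciferase ratio after 4 h LPS, normalised per plate to its median, given as replicate mean robust z-score per siRNA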
- Reading the numbers: TNF reporter z-score: higher = stronger LPS-induced TNF reporter signal; z-score, median over gene's siRNAs: higher = stronger TNF reporter signal across the gene's siRNAs
- Active means: 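Two-sided call: reduced or raised TNF reporter signal counts as active once mean z reaches about -1 or below, or about 1.5 or above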
- Calls: active = changed TNF reporter (either direction); inactive = little change
The whole screen tested about 3,500 reagents; below is a part drawn at random. In the full data, 731 (21%) are marked active. 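Active means either lowered or raised reporter signal; the gene-median score did not drive the per-siRNA calls.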 Reagents against one gene are numbered here. No sequences are given here.

CHD8 #1 showed TNF reporter z-score, replicate mean -0.32; z-score, median over gene's siRNAs 2.5; inactive.
After knock-down of CHD8 #2, the record shows TNF reporter z-score, replicate mean 3.13; z-score, median over gene's siRNAs 2.5; active.
After knock-down of CHD8 #3 the results were TNF reporter z-score, replicate mean 1.86; z-score, median over gene's siRNAs 2.5; active.
With knock-down of CHD8 #4, the screen gave TNF reporter z-score, replicate mean -0.37; z-score, median over gene's siRNAs 2.5; inactive.
Depletion of CHD8 #5 came out at: TNF reporter z-score, replicate mean 5.77; z-score, median over gene's siRNAs 2.5; active.
With knock-down of CHD8 #6, the screen gave TNF reporter z-score, replicate mean 7.14; z-score, median over gene's siRNAs 2.5; active.
Silencing of LIPE #1 gave: TNF reporter z-score, replicate mean -1.19; z-score, median over gene's siRNAs -0.275; active.
Silencing of LIPE #2 came out at: TNF reporter z-score, replicate mean -0.28; z-score, median over gene's siRNAs -0.275; inactive.
With knock-down of LIPE #3, the record shows TNF reporter z-score, replicate mean -0.27; z-score, median over gene's siRNAs -0.275; inactive.
LIPE #4 gave TNF reporter z-score, replicate mean 1.56; z-score, median over gene's siRNAs -0.275; active.
Knock-down of LIPE #5 resulted in: TNF reporter z-score, replicate mean -0.06; z-score, median over gene's siRNAs -0.275; inactive.
Against LIPE #6, the values are TNF reporter z-score, replicate mean -0.88; z-score, median over gene's siRNAs -0.275; inactive.

In a second layout: results already given.
target	reagent no.	TNF reporter z-score, replicate mean	z-score, median over gene's siRNAs	call
CHD8	3	1.86	2.5	active
CHD8	4	-0.37	2.5	inactive

Further results:
ZNF444 #1 showed TNF reporter z-score, replicate mean -0.65; z-score, median over gene's siRNAs -0.61; inactive.
ZNF444 #2 showed TNF reporter z-score, replicate mean 0.98; z-score, median over gene's siRNAs -0.61; inactive.
For ZNF444 #3 the deposit lists TNF reporter z-score, replicate mean -1.1; z-score, median over gene's siRNAs -0.61; active.
After knock-down of ZNF444 #4, the screen gave TNF reporter z-score, replicate mean 0.22; z-score, median over gene's siRNAs -0.61; inactive.
ZNF444 #5 showed TNF reporter z-score, replicate mean -1.11; z-score, median over gene's siRNAs -0.61; active.
With knock-down of ZNF444 #6 the results were TNF reporter z-score, replicate mean -0.57; z-score, median over gene's siRNAs -0.61; inactive.
